Laboratory results as given in the supplement of paper PMC10849652.
The other results are listed elsewhere or left out.

Chains of the proteins cited; added tags and fusions are not shown. Lines headed by an entry give the natural chain unless they say otherwise; changes in a name come on top.
UniProt Q14974, whole entry, looked up: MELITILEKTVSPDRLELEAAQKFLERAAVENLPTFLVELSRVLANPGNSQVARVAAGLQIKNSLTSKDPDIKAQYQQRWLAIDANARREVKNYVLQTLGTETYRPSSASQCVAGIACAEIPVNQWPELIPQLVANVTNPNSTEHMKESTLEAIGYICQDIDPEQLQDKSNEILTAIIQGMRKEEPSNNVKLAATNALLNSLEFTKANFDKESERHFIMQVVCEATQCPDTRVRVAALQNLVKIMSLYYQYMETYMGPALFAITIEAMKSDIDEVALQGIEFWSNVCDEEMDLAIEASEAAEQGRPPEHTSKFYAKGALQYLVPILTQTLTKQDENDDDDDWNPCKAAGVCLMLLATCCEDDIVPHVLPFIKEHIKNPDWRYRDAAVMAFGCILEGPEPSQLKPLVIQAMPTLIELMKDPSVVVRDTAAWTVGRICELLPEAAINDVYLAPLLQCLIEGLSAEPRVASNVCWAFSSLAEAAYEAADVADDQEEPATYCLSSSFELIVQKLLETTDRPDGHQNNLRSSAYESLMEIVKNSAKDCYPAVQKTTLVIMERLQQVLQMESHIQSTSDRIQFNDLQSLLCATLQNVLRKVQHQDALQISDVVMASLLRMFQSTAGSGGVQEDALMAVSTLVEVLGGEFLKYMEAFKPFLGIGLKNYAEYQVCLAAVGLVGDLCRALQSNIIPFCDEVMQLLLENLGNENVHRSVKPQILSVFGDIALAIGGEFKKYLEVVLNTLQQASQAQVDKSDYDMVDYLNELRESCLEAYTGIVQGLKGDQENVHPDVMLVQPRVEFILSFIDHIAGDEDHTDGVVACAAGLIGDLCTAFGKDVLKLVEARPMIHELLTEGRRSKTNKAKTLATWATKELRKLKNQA
UniProt O94889: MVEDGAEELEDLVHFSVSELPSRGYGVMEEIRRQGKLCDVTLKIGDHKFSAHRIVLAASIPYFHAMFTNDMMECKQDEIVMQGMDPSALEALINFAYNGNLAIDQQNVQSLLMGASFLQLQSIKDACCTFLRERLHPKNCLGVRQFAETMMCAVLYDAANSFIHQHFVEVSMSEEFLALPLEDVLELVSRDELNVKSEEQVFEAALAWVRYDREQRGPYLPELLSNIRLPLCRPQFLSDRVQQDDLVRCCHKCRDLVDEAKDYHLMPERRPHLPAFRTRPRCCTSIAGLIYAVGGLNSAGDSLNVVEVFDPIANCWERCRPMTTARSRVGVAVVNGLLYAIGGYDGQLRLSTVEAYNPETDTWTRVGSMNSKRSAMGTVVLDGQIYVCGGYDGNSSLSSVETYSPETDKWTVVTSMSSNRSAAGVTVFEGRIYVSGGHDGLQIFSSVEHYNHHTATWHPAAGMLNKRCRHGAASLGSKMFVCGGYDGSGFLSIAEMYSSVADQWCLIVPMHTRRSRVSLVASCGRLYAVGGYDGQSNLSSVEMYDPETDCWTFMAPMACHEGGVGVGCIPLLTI
UniProt O95251, whole entry, looked up: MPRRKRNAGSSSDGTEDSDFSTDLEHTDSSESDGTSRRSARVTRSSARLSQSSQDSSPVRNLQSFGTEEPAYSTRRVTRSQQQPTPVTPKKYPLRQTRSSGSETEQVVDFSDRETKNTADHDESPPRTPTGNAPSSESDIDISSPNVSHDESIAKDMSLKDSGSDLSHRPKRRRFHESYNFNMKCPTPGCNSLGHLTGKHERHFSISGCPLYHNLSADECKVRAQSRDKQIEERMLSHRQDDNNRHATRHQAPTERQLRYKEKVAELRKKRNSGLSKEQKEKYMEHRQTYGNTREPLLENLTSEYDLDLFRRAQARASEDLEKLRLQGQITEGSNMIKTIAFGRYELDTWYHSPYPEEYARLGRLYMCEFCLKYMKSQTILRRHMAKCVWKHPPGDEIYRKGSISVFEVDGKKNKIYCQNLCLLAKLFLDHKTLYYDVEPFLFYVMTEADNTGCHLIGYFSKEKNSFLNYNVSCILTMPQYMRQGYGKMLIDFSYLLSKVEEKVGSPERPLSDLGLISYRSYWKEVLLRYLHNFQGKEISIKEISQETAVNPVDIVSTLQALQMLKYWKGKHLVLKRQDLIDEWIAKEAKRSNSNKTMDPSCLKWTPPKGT
UniProt Q15058: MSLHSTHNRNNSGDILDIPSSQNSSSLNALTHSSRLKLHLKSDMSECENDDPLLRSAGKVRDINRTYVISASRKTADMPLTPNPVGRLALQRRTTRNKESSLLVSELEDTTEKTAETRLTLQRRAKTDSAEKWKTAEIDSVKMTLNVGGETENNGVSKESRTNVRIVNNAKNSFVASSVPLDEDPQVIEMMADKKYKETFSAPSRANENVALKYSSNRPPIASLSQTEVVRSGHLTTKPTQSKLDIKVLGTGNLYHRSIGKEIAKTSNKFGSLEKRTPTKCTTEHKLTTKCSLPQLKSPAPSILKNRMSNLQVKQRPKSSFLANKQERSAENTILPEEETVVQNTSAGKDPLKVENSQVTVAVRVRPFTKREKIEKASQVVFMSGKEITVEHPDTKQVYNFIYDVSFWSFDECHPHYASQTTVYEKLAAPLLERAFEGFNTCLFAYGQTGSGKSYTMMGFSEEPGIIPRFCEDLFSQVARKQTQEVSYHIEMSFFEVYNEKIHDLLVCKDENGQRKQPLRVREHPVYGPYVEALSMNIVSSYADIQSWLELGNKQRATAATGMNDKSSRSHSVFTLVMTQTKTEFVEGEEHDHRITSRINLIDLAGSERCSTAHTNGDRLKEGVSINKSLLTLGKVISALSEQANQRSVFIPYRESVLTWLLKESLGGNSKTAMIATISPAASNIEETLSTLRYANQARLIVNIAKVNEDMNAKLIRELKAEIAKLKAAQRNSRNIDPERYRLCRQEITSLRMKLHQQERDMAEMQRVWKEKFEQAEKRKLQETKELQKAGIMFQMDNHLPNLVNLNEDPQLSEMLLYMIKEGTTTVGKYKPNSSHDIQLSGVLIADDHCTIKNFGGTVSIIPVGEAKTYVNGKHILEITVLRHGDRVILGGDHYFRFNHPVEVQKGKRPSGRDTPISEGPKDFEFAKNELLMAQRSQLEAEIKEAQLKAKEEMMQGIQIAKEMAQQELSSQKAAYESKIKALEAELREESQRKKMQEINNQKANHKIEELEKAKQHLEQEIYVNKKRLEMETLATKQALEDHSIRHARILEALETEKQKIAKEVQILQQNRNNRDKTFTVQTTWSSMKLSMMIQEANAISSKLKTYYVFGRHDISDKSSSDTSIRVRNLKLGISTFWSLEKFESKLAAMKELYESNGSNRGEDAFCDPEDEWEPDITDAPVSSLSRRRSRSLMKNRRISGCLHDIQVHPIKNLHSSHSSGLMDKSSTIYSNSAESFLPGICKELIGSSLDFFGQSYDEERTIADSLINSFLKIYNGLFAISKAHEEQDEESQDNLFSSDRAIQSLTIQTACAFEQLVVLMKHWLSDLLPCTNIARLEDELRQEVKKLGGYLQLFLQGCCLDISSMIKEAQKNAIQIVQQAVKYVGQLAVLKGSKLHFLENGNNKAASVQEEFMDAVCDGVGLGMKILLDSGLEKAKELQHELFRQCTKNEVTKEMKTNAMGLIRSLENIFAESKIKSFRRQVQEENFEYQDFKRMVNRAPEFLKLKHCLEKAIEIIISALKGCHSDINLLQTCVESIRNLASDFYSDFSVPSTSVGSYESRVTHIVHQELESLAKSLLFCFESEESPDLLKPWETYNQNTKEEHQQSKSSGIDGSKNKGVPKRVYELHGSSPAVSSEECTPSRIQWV
UniProt Q9H0B6: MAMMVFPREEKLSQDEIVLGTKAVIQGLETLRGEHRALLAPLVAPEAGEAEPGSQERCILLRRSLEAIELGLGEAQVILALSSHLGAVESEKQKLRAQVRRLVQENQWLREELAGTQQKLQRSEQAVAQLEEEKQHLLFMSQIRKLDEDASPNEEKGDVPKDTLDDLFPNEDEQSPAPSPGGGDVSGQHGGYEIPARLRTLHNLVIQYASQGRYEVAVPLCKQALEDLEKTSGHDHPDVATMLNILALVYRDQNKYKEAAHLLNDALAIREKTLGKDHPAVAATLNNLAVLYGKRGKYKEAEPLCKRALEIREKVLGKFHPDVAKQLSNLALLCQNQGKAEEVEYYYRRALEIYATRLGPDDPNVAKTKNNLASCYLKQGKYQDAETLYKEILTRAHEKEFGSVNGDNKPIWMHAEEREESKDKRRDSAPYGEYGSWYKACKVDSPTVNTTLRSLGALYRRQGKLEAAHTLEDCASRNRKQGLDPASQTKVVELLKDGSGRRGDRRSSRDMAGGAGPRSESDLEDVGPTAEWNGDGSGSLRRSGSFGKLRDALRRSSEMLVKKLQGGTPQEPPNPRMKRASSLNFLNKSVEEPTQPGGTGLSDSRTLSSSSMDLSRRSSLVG
UniProt Q8N6L1: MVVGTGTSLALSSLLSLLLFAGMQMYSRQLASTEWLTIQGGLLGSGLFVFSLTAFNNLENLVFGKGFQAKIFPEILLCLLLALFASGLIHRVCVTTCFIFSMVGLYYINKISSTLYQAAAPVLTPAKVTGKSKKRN
UniProt Q13351: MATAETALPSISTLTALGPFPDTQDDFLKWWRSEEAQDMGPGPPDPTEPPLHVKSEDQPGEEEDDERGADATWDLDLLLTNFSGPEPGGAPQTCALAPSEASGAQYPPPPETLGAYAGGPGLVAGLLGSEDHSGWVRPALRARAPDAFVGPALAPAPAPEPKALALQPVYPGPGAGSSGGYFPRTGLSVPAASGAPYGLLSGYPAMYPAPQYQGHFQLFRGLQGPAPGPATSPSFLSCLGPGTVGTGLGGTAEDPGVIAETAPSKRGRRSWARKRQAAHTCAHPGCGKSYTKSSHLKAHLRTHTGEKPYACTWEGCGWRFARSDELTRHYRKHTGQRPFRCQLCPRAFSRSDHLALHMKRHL
UniProt P01042: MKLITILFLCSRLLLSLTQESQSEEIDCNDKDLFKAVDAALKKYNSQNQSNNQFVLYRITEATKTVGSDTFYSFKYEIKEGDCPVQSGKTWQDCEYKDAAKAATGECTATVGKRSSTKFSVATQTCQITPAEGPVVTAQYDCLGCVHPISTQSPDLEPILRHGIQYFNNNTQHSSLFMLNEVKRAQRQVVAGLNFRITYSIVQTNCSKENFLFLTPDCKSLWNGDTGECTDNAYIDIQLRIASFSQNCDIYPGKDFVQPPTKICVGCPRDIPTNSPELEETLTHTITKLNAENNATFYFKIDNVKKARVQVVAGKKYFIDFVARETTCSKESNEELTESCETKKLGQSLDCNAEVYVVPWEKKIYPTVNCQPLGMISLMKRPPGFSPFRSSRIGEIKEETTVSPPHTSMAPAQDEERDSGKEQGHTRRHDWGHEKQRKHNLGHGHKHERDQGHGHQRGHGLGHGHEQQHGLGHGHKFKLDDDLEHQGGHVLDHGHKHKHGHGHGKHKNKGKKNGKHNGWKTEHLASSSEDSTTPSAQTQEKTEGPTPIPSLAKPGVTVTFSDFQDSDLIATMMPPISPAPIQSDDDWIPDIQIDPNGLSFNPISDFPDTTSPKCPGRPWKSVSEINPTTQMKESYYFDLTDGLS
UniProt Q9BXK1: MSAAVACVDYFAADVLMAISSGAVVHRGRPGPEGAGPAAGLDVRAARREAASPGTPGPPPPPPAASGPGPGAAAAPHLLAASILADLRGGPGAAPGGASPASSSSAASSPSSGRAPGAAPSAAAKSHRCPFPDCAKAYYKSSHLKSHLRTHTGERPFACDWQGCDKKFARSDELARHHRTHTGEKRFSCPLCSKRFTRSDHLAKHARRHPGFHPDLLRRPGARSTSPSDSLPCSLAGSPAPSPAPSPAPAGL
UniProt Q9H910: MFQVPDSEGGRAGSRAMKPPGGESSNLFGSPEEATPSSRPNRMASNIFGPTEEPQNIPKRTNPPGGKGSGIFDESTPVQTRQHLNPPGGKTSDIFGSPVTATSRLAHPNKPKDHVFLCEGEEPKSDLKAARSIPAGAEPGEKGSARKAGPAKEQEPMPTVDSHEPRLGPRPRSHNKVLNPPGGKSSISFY
UniProt Q2M2Z5: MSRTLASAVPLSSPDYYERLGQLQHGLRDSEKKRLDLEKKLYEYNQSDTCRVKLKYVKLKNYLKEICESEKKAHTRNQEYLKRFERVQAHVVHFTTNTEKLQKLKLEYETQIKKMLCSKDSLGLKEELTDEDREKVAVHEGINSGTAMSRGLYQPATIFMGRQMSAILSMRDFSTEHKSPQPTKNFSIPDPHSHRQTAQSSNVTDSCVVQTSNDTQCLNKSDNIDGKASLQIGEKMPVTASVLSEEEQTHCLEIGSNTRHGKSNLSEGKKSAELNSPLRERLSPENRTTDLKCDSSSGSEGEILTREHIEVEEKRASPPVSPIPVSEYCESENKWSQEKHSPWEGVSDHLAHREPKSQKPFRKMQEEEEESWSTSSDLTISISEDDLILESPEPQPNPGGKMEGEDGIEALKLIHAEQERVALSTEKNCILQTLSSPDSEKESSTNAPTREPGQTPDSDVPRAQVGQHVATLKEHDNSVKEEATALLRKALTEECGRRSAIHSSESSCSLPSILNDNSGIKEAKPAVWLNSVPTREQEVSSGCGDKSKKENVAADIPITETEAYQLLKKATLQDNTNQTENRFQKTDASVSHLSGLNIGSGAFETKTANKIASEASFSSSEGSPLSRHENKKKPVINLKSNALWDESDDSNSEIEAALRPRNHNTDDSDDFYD

The targets below were run with CNC(=O)c1ccc(Nc2ncc(C(F)(F)F)c(NCc3nccnc3N(C)S(C)(=O)=O)n2)cc1 [defactinib] (assay: log2 fold change, soluble protein after heating vs DMSO (PISA); higher = thermal stabilisation; K562 cells, 10 uM, 30 min; active = over 0.2 and 3.5 SD of the protein, either way, in both replicates (recomputed)).
How it was run: (§1)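 Quantification of soluble protein used TMTpro 16plex LC-MS/MS, with channel sums equalised. Samples were the supernatant after 21,000xg for 90 min of pooled aliquots from K562 cells (2×10^6 cells/mL) treated with 10 μM compound for 30 min, heated for 3 min over 48°C-58°C, and extracted in PBS with 0.5% NP-40 at 4°C. Values, from duplicates, describe thermal stability against control samples on a log2 fold-change scale.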

Target | log2 fold change
KSR1 (UniProt Q8IVT5) | inactive: -0.073
KIF3A (UniProt Q9Y496) | inactive: 0.013
KPNB1 (UniProt Q14974) | inactive: -0.039
JUNB (UniProt P17275) | inactive: -0.137
KCNN4 (UniProt O15554) | inactive: 0
KLHL18 (UniProt O94889) | inactive: -0.04
KNOP1 (UniProt Q1ED39) | inactive: 0.001
KIFBP (UniProt Q96EK5) | inactive: -0.092
KPNA1 (UniProt P52294) | inactive: -0.064
KIFC3 isoform 6 (UniProt Q9BVG8) | inactive: -0.094
KIAA1755 (UniProt Q5JYT7) | inactive: 0.015
KAT7 (UniProt O95251) | inactive: -0.081
KATNBL1 (UniProt Q9H079) | inactive: 0.109
KIF14 (UniProt Q15058) | inactive: 0.109
KBTBD4 isoform 2 (UniProt Q9NVX7) | inactive: 0.111
KHDC4 (UniProt Q7Z7F0) | inactive: -0.058
KNTC1 (UniProt P50748) | inactive: -0.044
KIF3B (UniProt O15066) | inactive: 0.028
KLC2 (UniProt Q9H0B6) | inactive: -0.13
KRTCAP2 isoform 2 (UniProt Q8N6L1) | inactive: 0.119
KAT6B (UniProt Q8WYB5) | inactive: -0.046
KLF1 (UniProt Q13351) | inactive: 0.067
KNG1 (UniProt P01042) | inactive: -0.023
KEAP1 (UniProt Q14145) | inactive: -0.045
KLF16 (UniProt Q9BXK1) | inactive: 0.005
KIF1B isoform 4 (UniProt O60333) | inactive: -0.004
KIF11 (UniProt P52732) | inactive: 0.017
JMJD6 isoform 3 (UniProt Q6NYC1) | inactive: -0.188
JPT2 isoform 2 (UniProt Q9H910) | inactive: 0.014

What follows are targets tested with CNCc1ccc(-c2[nH]c3cc(F)cc4c3c2CCNC4=O)cc1 [rucaparib] in the same assay as above.
How it was run: as §1

Target | log2 fold change
KSR1 (UniProt Q8IVT5) | inactive: -0.044
KIF3A (UniProt Q9Y496) | inactive: 0.292
KPNB1 (UniProt Q14974) | inactive: 0.126
JUNB (UniProt P17275) | inactive: -0.034
KCNN4 (UniProt O15554) | inactive: 0.041
KLHL18 (UniProt O94889) | inactive: -0.042
KNOP1 (UniProt Q1ED39) | inactive: 0.08
KIFBP (UniProt Q96EK5) | inactive: 0.045
KIF13B (UniProt Q9NQT8) | inactive: 0.199
KCNK5 (UniProt O95279) | inactive: 0.05
KPNA1 (UniProt P52294) | inactive: 0.151
KIFC3 isoform 6 (UniProt Q9BVG8) | inactive: -0.099
KIAA1755 (UniProt Q5JYT7) | inactive: 0.007
KAT7 (UniProt O95251) | inactive: 0.112
KATNBL1 (UniProt Q9H079) | inactive: 0.218
KIF14 (UniProt Q15058) | inactive: 0.522
KBTBD4 isoform 2 (UniProt Q9NVX7) | inactive: 0.132

Target | log2 fold change
KHDC4 (UniProt Q7Z7F0) | inactive: -0.058
KNTC1 (UniProt P50748) | inactive: 0.021
KIF3B (UniProt O15066) | inactive: -0.189
KLC2 (UniProt Q9H0B6) | inactive: 0.001
KRTCAP2 isoform 2 (UniProt Q8N6L1) | inactive: -0.05
KIZ (UniProt Q2M2Z5) | inactive: -0.027
KAT6B (UniProt Q8WYB5) | inactive: -0.003
KIF26A (UniProt Q9ULI4) | inactive: 0.019
KLF1 (UniProt Q13351) | inactive: 0.027
KNG1 (UniProt P01042) | inactive: -0.206
KEAP1 (UniProt Q14145) | inactive: 0.116
KLF16 (UniProt Q9BXK1) | inactive: -0.017
KIF1B isoform 4 (UniProt O60333) | inactive: -0.006
KIF11 (UniProt P52732) | inactive: 0.183
JMJD6 isoform 3 (UniProt Q6NYC1) | inactive: 0.061
JPT2 isoform 2 (UniProt Q9H910) | inactive: 0.126
